Source: the supplement of paper PMC7666118
The list shows a part of the results.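 Rule for the calls: active = dose-dependent thermal stabilisation significant by F-test of dose-response against flat model at 10% FDR; inactive = not significant.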

The chains behind the UniProt entries cited, without tags or fusion partners. Where a name states a change or a piece, a line headed by the entry shows the natural chain unless it says otherwise.
UniProt P41236: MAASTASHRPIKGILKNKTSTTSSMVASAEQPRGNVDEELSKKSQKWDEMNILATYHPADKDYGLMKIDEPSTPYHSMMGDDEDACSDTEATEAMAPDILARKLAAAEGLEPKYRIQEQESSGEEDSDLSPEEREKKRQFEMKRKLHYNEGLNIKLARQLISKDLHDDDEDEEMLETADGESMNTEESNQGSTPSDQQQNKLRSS
UniProt O43314: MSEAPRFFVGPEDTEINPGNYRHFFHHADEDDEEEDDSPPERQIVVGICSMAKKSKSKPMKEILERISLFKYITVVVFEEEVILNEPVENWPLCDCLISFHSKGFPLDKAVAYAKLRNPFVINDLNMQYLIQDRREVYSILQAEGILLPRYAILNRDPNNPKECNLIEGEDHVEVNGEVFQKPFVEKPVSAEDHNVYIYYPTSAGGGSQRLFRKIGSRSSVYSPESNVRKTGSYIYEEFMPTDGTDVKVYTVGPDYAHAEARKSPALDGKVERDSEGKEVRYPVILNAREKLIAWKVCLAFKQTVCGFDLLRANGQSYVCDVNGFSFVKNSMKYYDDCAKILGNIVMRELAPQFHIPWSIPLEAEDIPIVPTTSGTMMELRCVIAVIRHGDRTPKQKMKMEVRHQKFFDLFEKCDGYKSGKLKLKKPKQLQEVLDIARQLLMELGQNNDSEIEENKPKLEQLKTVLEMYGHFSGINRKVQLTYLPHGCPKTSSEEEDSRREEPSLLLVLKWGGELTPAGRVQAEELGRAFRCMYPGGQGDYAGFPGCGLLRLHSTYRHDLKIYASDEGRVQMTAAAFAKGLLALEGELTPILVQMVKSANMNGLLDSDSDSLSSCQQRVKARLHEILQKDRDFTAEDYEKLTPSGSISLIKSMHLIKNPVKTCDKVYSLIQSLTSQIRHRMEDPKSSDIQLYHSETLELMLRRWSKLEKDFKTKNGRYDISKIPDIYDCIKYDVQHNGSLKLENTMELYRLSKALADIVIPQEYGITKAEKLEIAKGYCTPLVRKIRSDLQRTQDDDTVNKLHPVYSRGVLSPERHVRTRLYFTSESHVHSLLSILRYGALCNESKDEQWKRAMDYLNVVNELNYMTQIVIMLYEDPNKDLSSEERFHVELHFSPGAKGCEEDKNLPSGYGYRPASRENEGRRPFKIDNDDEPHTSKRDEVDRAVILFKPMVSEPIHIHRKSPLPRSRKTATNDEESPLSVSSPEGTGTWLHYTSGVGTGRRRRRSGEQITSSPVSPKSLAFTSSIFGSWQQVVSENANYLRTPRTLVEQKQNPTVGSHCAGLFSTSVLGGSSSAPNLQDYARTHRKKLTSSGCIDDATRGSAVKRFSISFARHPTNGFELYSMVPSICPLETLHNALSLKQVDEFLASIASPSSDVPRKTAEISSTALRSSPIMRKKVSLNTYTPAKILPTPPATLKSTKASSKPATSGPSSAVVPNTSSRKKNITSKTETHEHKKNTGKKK
UniProt Q9NTI5: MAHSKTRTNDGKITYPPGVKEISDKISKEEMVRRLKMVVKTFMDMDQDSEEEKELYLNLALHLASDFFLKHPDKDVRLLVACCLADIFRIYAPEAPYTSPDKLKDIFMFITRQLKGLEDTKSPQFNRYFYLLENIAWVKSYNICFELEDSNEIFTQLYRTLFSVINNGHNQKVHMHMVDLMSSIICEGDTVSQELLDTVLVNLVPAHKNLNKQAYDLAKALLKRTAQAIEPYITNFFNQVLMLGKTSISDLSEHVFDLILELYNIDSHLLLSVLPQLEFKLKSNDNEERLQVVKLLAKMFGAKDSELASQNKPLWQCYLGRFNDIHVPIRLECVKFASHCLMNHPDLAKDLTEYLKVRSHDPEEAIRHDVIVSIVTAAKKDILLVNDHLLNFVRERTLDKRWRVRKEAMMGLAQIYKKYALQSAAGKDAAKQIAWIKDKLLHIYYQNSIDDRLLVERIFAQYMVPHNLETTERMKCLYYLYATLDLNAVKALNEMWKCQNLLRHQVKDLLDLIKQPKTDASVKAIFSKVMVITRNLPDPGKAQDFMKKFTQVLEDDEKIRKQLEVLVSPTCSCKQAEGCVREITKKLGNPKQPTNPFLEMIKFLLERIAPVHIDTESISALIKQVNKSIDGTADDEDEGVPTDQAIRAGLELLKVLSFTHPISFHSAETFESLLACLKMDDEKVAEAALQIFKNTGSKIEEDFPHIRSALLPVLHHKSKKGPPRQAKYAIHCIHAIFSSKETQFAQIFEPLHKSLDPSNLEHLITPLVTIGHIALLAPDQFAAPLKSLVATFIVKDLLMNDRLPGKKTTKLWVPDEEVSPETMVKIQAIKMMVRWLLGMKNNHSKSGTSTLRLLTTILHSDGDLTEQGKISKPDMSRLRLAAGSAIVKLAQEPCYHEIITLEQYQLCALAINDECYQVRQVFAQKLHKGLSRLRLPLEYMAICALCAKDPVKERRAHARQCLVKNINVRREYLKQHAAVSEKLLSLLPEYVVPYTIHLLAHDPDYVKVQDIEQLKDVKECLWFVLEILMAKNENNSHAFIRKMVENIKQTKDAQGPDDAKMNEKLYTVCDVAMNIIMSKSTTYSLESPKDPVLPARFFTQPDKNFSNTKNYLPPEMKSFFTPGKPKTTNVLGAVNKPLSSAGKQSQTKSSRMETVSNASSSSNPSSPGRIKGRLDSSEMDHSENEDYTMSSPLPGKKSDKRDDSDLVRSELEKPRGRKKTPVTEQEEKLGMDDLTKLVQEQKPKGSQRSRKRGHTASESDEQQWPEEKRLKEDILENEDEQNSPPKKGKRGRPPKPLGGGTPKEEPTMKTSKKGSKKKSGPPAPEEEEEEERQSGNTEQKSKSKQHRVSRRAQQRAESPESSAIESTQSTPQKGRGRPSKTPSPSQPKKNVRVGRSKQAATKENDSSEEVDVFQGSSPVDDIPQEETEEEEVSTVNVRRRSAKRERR
UniProt P61457: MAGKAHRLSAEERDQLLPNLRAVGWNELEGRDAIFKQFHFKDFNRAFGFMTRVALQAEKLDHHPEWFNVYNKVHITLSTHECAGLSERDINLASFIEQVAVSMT
UniProt Q15181: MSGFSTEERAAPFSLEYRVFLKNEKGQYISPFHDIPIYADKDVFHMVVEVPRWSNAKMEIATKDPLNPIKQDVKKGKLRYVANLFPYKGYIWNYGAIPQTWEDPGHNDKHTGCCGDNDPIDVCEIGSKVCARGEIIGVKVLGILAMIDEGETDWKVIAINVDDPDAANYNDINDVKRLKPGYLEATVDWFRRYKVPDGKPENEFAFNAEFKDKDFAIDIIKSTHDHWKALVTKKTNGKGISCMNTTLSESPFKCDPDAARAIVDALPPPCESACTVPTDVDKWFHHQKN
UniProt O60825: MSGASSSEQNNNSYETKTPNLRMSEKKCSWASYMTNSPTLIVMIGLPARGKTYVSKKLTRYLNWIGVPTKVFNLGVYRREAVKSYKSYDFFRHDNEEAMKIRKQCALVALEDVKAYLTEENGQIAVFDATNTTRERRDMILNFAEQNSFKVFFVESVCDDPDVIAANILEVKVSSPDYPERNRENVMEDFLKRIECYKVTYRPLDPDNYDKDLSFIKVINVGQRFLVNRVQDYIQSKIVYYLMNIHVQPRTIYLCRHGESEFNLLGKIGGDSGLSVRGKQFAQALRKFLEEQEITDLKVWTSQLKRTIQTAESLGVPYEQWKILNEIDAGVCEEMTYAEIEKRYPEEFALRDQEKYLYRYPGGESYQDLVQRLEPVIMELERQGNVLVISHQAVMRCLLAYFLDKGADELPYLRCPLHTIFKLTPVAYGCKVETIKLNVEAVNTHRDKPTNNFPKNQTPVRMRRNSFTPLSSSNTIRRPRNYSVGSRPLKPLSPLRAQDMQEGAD
UniProt P27986, whole entry: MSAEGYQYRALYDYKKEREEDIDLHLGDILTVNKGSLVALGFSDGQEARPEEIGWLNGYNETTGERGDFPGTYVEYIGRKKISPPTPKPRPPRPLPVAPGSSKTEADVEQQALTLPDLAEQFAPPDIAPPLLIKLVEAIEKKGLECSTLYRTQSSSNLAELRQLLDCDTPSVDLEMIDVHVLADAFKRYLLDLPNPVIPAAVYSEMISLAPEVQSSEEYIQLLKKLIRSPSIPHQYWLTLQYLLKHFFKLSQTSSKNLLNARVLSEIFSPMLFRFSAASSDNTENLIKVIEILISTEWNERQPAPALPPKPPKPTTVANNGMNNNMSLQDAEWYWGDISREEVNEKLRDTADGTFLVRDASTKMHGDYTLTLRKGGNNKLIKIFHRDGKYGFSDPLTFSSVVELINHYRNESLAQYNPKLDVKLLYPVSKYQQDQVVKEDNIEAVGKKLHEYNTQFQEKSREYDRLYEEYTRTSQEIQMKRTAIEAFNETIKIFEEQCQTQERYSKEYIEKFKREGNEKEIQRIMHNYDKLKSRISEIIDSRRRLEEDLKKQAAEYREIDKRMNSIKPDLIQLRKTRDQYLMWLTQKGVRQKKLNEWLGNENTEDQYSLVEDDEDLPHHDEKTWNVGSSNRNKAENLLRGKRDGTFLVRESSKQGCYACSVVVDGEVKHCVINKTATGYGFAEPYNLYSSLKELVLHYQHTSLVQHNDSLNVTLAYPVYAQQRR
UniProt Q92576, whole entry: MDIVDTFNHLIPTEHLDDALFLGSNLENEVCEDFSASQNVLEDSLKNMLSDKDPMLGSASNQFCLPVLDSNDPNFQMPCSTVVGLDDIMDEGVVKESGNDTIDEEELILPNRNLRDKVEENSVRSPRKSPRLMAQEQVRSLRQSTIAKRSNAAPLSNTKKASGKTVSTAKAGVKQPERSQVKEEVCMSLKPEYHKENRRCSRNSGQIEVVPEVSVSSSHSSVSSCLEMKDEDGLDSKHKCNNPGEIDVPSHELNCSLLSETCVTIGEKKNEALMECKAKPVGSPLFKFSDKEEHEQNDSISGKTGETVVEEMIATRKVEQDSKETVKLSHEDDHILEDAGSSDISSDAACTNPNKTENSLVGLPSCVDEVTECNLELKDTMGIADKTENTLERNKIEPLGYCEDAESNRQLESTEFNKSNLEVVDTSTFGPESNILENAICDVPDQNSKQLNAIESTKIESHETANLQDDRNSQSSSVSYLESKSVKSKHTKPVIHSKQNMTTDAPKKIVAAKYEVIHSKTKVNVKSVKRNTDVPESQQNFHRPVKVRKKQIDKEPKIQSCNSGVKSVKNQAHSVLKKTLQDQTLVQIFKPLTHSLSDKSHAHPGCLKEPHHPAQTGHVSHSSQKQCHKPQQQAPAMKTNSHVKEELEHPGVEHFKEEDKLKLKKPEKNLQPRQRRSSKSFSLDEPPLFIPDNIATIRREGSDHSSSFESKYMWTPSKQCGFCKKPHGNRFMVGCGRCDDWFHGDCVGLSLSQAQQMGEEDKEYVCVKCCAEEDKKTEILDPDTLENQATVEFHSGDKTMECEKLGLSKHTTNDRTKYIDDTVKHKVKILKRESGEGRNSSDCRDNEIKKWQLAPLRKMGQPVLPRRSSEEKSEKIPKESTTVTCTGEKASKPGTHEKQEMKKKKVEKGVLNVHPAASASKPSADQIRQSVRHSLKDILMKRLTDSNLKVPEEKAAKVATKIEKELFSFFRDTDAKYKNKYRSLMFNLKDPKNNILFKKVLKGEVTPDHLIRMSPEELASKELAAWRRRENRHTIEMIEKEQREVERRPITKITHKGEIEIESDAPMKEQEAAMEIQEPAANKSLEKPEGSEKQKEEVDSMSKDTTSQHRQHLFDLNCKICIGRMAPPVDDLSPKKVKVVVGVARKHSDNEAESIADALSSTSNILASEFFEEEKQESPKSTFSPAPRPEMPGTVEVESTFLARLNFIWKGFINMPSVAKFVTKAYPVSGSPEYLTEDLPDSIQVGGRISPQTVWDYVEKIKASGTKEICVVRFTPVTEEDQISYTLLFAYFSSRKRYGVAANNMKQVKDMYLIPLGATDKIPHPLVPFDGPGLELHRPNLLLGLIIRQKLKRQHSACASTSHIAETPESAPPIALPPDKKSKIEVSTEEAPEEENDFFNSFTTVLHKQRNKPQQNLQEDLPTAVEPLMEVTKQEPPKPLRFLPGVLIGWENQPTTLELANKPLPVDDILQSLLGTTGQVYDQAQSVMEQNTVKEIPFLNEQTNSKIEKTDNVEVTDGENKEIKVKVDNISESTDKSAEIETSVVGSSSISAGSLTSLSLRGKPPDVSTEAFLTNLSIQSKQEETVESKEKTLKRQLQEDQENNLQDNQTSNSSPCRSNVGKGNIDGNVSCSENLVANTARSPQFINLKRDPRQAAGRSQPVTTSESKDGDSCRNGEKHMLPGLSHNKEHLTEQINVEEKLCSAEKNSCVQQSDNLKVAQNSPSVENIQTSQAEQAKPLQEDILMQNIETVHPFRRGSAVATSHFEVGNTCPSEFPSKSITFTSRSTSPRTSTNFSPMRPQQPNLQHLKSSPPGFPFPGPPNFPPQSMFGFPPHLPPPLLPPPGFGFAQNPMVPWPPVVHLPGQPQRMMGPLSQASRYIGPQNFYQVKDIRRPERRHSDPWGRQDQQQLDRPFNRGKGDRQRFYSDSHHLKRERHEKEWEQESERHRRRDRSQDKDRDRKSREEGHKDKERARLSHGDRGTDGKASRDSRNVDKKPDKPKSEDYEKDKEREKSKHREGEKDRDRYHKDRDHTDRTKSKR

compound: Nc1nc2c(ncn2[C@@H]2O[C@H](COP(=O)(O)OP(=O)(O)OP(=O)(O)O)[C@@H](O)[C@H]2O)c(=O)[nH]1; assay: dose-dependent thermal stabilisation call (2D-TPP, DLPTP, 10% FDR) (binary (1 = stabilised)); higher = stabilised by the compound; conditions: system: Jurkat gel-filtered lysate; concentration range 1-500 µM

Row | Target | dose-dependent thermal stabilisation call
1 | PDPR (UniProt Q8NCN5) | active: 1
2 | PPP1R11 (UniProt O60927) | inactive: 0
3 | PCTP (UniProt Q9UKL6) | active: 1
4 | PDIA4 (UniProt P13667) | inactive: 0
5 | PNPT1 (UniProt Q8TCS8) | inactive: 0
6 | PIN1 (UniProt Q13526) | inactive: 0
7 | PLEKHA7 (UniProt Q6IQ23) | inactive: 0
8 | PPP1R2 (UniProt P41236) | inactive: 0
9 | PPP3CB (UniProt P16298) | inactive: 0
10 | PHF10 (UniProt Q8WUB8) | inactive: 0
11 | PNPO (UniProt Q9NVS9) | inactive: 0
12 | PPIP5K2 (UniProt O43314) | active: 1
13 | PDS5B (UniProt Q9NTI5) | inactive: 0
14 | PPP2R5B (UniProt Q15173) | inactive: 0
15 | PCBD1 (UniProt P61457) | inactive: 0
16 | PLBD2 (UniProt Q8NHP8) | inactive: 0
17 | PFKP (UniProt Q01813) | active: 1
18 | PFN2 (UniProt P35080) | active: 1

Rewritten field by field: entries from further up.
PPP1R11 (UniProt O60927)
  dose-dependent thermal stabilisation call: inactive: 0
PCTP (UniProt Q9UKL6)
  dose-dependent thermal stabilisation call: active: 1
PDIA4 (UniProt P13667)
  dose-dependent thermal stabilisation call: inactive: 0

Later entries

Row | Target | dose-dependent thermal stabilisation call
19 | PPA1 (UniProt Q15181) | inactive: 0
20 | PPP1CA (UniProt P62136) | inactive: 0
21 | PGM2L1 (UniProt Q6PCE3) | inactive: 0
22 | PLEKHB2 (UniProt Q96CS7) | inactive: 0
23 | POMP (UniProt Q9Y244) | inactive: 0
24 | PPP2R1B (UniProt P30154) | inactive: 0
25 | PFKFB2 (UniProt O60825) | inactive: 0
26 | PRDM2 (UniProt Q13029) | inactive: 0
27 | PICALM (UniProt Q13492) | inactive: 0
28 | PIK3R1 (UniProt P27986) | inactive: 0
29 | PLEKHA1 (UniProt Q9HB21) | active: 1
30 | PDCD6IP (UniProt Q8WUM4) | inactive: 0
31 | PCBP2 (UniProt Q15366) | inactive: 0
32 | PDIA5 (UniProt Q14554) | inactive: 0
33 | PLEKHF1 (UniProt Q96S99) | active: 1
34 | PITPNC1 (UniProt Q9UKF7) | inactive: 0
35 | PHF3 (UniProt Q92576) | inactive: 0
36 | PGD (UniProt P52209) | inactive: 0
